How the values were obtained:
[1] = system: fMLF-activated human neutrophils (O2•– release); test: Superoxide anion (O2•–) inhibition in fMLF-activated human neutrophils; assay type: cell-based; details: inhibition percentage at 3 µM multiplied by nude mouse skin deposition at 6 mM
Source text: (§1) The protocol was approved by the Institutional Review Board at Chang Gung Memorial Hospital, and written informed consent was obtained from all volunteers (201600500B0C101). Whole blood was withdrawn from healthy volunteers between 20 and 30 years of age. Human neutrophils were isolated using a typical method of dextran sedimentation prior to centrifugation in a Ficoll-Hypaque gradient and hypotonic lysis of erythrocytes. The granulocyte layer was harvested and suspended in calcium-free HBSS at pH 7.4, which was maintained at 4 °C until use.
(§2) The reduction of ferricytochrome c was utilized for measuring the superoxide anion (O2^•–) release from the neutrophils. The human neutrophils (6 × 10^5 cells/mL) were incubated with 0.5 mg/mL ferricytochrome c and 1 mM CaCl2 at 37 °C, and were then treated with flavonoids (3 µM) in DMSO for 10 min. Neutrophils were stimulated by adding 0.1 µM fMLF with cytochalasin B (1 µg/mL). The reduction of ferricytochrome c was monitored by the absorbance at 550 nm using a U3010 ultraviolet/visible spectrophotometer (Hitachi, Tokyo, Japan). The human neutrophils were equilibrated with an elastase substrate (MeO-Suc-Ala-Ala-Pro-Val-p-nitroanilide, 100 µM) at 37 °C for 2 min. Flavonoids at a concentration of 3 µM were added into the neutrophil suspension for 10 min. The cells were activated by fMLF and cytochalasin B for a further 10 min. Elastase release was detected by measuring the change of absorbance at 405 nm.

[2] = system: fMLF-activated human neutrophils (elastase release); test: Elastase release inhibition in fMLF-activated human neutrophils; assay type: cell-based; details: inhibition percentage at 3 µM multiplied by nude mouse skin deposition at 6 mM
Source text: as §1, §2

Compound | TIsuperoxide [1] | TIelastase [2]
C[C@@H]1O[C@@H](OC[C@H]2O[C@@H](Oc3c(-c4ccc(O)c(O)c4)oc4cc(O)cc(O)c4c3=O)[C@H](O)[C@@H](O)[C@@H]2O)[C@H](O)[C@H](O)[C@H]1O [Rutin] | 0.39 | 0.15
O=c1c(O)c(-c2cc(O)c(O)c(O)c2)oc2cc(O)cc(O)c12 [Myricetin] | 0.58 | 0.23
O=C(O)[C@H]1O[C@@H](Oc2cc3oc(-c4ccccc4)cc(=O)c3c(O)c2O)[C@H](O)[C@@H](O)[C@@H]1O [Baicalin] | 0.53 | 0
O=c1cc(-c2ccccc2)oc2cc(O)c(O)c(O)c12 [Baicalein] | 2.60 | 0.41

Reference: paper PMC5748754, “Elucidating the Skin Delivery of Aglycone and Glycoside Flavonoids: How the Structures Affect Cutaneous Absorption” (Nutrients, 2017)
